{"source": "PubChem BioAssay AID1224830 (NIAID, 2016)", "purpose": "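Host factors that control LPS-induced TNF expression in human macrophages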 (primary screen)", "cell system": "human THP-1 monocytic leukaemia cells, TNF dual-luciferase reporter clone, PMA-differentiated to macrophage-like cells", "reagents": "siRNA pool against human genes, 50 nM", "timing": "LPS for 4 h, given about 3 days after siRNA transfection", "treatment": "bacterial LPS (TLR4 ligand), 10 ng/ml", "read-out": "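Ratio of firefly to renilla light, scaled to the plate median and expressed as a robust z-score per replicate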", "direction": "TNF reporter robust z-score: higher = stronger TNF reporter response to LPS", "hit rule": "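a well is active when its z-score exceeds 2.8 or falls below -1.5; control wells carry no call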", "note": "This is one part, drawn at random, of about 18,000 reagents. About 2,900 of them (16%) count as active. 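Calls are made per well; low scores hint the gene aids the LPS response, high scores that it dampens it.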 Entries without a mark were called inactive. Repeated entries: four replicate wells of each siRNA pool."}
{"gene": "RXFP3", "TNF reporter robust z-score": -0.04}
{"gene": "RXFP3", "TNF reporter robust z-score": -0.8}
{"gene": "RXFP3", "TNF reporter robust z-score": 0.63}
{"gene": "RXFP3", "TNF reporter robust z-score": -0.39}
{"gene": "SNRPD3", "TNF reporter robust z-score": -1.41}
{"gene": "SNRPD3", "TNF reporter robust z-score": -1.03}
{"gene": "SNRPD3", "TNF reporter robust z-score": -1.49}
{"gene": "SNRPD3", "TNF reporter robust z-score": "-1.51 (active)"}
{"gene": "B4GALNT4", "TNF reporter robust z-score": -0.87}
{"gene": "B4GALNT4", "TNF reporter robust z-score": -0.18}
{"gene": "B4GALNT4", "TNF reporter robust z-score": -0.64}
{"gene": "ZDHHC12", "TNF reporter robust z-score": 2.57}
{"gene": "ZDHHC12", "TNF reporter robust z-score": 2.2}
{"gene": "ZDHHC12", "TNF reporter robust z-score": 1.84}
{"gene": "ZDHHC12", "TNF reporter robust z-score": 1.06}
{"gene": "KIF1B", "TNF reporter robust z-score": 0.52}
{"gene": "KIF1B", "TNF reporter robust z-score": 0.7}
{"gene": "KIF1B", "TNF reporter robust z-score": 1.55}
{"gene": "KIF1B", "TNF reporter robust z-score": -0.2}
{"gene": "PLA2G2E", "TNF reporter robust z-score": -0.93}
{"gene": "PLA2G2E", "TNF reporter robust z-score": -0.44}
{"gene": "PLA2G2E", "TNF reporter robust z-score": 0.3}
{"gene": "PLA2G2E", "TNF reporter robust z-score": -0.09}

3 of these entries, set out differently:
gene | TNF reporter robust z-score
B4GALNT4 | -0.87
B4GALNT4 | -0.18
B4GALNT4 | -0.64

The results go on.
{"gene": "RAD54B", "TNF reporter robust z-score": -1.13}
{"gene": "RAD54B", "TNF reporter robust z-score": -0.22}
{"gene": "RAD54B", "TNF reporter robust z-score": -0.3}
{"gene": "RAD54B", "TNF reporter robust z-score": -0.43}
{"gene": "SH3BGRL3", "TNF reporter robust z-score": -1.37}
{"gene": "SH3BGRL3", "TNF reporter robust z-score": -1.39}
{"gene": "SH3BGRL3", "TNF reporter robust z-score": -0.72}
{"gene": "SIGLEC6", "TNF reporter robust z-score": -0.87}
{"gene": "SIGLEC6", "TNF reporter robust z-score": -1.2}
{"gene": "SIGLEC6", "TNF reporter robust z-score": -1.31}
{"gene": "SIGLEC6", "TNF reporter robust z-score": -0.64}
{"gene": "PF4", "TNF reporter robust z-score": -0.85}
{"gene": "PF4", "TNF reporter robust z-score": -0.39}
{"gene": "PF4", "TNF reporter robust z-score": -0.94}
{"gene": "PF4", "TNF reporter robust z-score": -0.83}
{"gene": "VPS45", "TNF reporter robust z-score": 0.3}
{"gene": "VPS45", "TNF reporter robust z-score": -0.09}
{"gene": "VPS45", "TNF reporter robust z-score": 0.32}
{"gene": "VPS45", "TNF reporter robust z-score": 0.82}
{"gene": "CD300LF", "TNF reporter robust z-score": 0.29}
{"gene": "CD300LF", "TNF reporter robust z-score": -1.15}
{"gene": "CD300LF", "TNF reporter robust z-score": -1.17}
{"gene": "CD300LF", "TNF reporter robust z-score": -0.97}
{"gene": "CD300LF", "TNF reporter robust z-score": 2.01}
{"gene": "CD300LF", "TNF reporter robust z-score": 2.25}
{"gene": "CD300LF", "TNF reporter robust z-score": 0.92}
{"gene": "SHANK1", "TNF reporter robust z-score": "2.96 (active)"}
{"gene": "SHANK1", "TNF reporter robust z-score": -0.07}
{"gene": "SHANK1", "TNF reporter robust z-score": 1.41}
{"gene": "SHANK1", "TNF reporter robust z-score": -0.14}
{"gene": "MICU3", "TNF reporter robust z-score": 1.5}
{"gene": "MICU3", "TNF reporter robust z-score": 1.3}
{"gene": "MICU3", "TNF reporter robust z-score": 1.54}
{"gene": "MICU3", "TNF reporter robust z-score": 2.36}
{"gene": "ZNF177", "TNF reporter robust z-score": -0.14}
{"gene": "ZNF177", "TNF reporter robust z-score": 0.19}
{"gene": "ZNF177", "TNF reporter robust z-score": -0.24}
{"gene": "ZNF177", "TNF reporter robust z-score": 0.14}
